Experimental findings from paper PMC11601938 are described below.

Amino acid sequences for entries named in this document (tags omitted).
UniProt Q92963: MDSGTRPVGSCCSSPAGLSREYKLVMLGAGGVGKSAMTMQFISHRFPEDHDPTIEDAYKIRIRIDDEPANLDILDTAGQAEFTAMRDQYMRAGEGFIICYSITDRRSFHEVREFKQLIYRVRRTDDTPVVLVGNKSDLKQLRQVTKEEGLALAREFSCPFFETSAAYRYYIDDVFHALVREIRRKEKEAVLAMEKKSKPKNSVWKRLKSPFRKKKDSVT

The target in assay [1] is T1, FLAG-LZTR1 p.G248R, in vitro translated (human) (UniProt Q8N653).
T1 sequence: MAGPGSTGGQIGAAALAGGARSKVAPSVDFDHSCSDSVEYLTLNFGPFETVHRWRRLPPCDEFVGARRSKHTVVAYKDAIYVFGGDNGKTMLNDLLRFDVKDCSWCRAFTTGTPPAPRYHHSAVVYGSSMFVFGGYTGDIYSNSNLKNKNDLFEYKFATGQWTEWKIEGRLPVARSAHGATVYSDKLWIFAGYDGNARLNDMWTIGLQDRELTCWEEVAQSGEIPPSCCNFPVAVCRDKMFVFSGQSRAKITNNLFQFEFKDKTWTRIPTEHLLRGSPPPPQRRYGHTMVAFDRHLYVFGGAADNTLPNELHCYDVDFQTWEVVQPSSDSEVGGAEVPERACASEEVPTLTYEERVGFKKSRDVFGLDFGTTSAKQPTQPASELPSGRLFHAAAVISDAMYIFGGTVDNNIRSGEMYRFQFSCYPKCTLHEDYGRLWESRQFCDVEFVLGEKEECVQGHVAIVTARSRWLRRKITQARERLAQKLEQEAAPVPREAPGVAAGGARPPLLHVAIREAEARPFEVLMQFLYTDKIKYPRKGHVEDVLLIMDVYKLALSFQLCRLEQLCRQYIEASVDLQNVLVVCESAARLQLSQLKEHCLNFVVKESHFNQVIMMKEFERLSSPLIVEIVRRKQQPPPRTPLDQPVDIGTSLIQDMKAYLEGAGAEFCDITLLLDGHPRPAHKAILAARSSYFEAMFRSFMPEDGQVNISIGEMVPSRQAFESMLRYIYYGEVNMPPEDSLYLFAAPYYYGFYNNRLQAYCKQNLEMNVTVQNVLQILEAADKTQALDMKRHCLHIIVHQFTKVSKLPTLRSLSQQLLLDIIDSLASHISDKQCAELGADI
Kind of assay: co-IP; in vitro translated FLAG-LZTR1 WT or mutants incubated with HEK293-KO (LZTR1-KO) whole-cell lysate and FLAG-M2 magnetic beads for 12 hours; immunoblot for endogenous RAS subfamily proteins. (In general: In western blotting, separated proteins are transferred to a membrane and probed.)

For assay [2], the target named is T2, LZTR1 WT (leucine-zipper-like posttranslational regulator 1), in vitro translated, FLAG-tagged (human) (UniProt Q8N653).
T2 sequence: T1 sequence with R248G
The description is as above.

In assay [3] the target is T3, LZTR1 WT (leucine-zipper-like posttranslational regulator 1), in vitro translated, FLAG-tagged (human), Q8N653.
T3 chain: T1 sequence with R248G
The assay is described as follows: co-IP; in vitro translated FLAG-, MYC- and HA-tagged LZTR1 proteins mixed at the indicated protein ratios and incubated with FLAG-M2 magnetic beads for 6 hours; immunoblot. The conditions noted are these: remark: other sources report otherwise.

Residue numbers refer to the chain shown, from its start. Results are given in words; binding and its absence hold for the method and conditions named. Binding seen in cells or lysates may run through a third protein. Some entries that bind do so weakly or less than the wild type. Sequences can lack the tags named with a protein.

Regarding “RIT1 (Ras-like without CAAX 1), endogenous (from UniProt Q92963 1-219)”, the binding result is listed as “no binding” in assay [1] and “binds” in assay [2].

B1: LZTR1 WT (leucine-zipper-like posttranslational regulator 1), in vitro translated, FLAG-tagged, Q8N653 1-840 (protein)
chain: T1 sequence with R248G
B1: in assay [3], the binding entry is “binds”.
